From US7238786B2, “Monoclonal antibody cPAM4” (Immunomedics, Inc., priority 2002, dated 2007)

System: PAM4 antigen
Assay: PAM4 enzyme immunoassay of blood in the orthotopic CaPan1 model
Assay type: binding, athymic nude mice

B1: PAM4: murine MUC1 monoclonal antibody developed with pancreatic cancer mucin from the xenografted RIP-1 human pancreatic carcinoma as immunogen (antibody, V domains shown)
VL: DIVMTQSPAIMSASPGEKVTMTCSASSSVSSSYLYWYQQKPGSSPKLWIYSTSNLASGVPARFSGSGSGTSYSLTISSMEAEDAASYFCHQWNRYPYTFGGGTKLEIK
VH: EVQLQESGPELVKPGASVKMSCKASGYTFPSYVLHWVKQKPGQGLEWIGYINPYNDGTQYNEKFKGKATLTSDKSSSTAYMELSRLTSEDSAVYYCARGFGGSYGFAYWGQGTLITVSA
level of antigen in the blood, range (six weeks, four out of five animals quantifiable): 98-6080 units
antigen in the blood (two weeks postimplantation, estimated tumor mass 0.15 g): none of the animals had detectable antigen
